Where a name gives a salt, the structure may show the parent alone. At least one structure is not confirmed: it was looked up by name or label, or the drawing left a doubt.
Tests used:
[1] = Storage stability of the powder at room temperature; assay type: physicochemical; settings: for color change and decomposition on storage: 3 months from the production, room temperature
Source text: This compound is a powdery material having a yellowish color immediately after the production thereof. It gradually changes its color into brown. […] This is because a decomposition product, which is difficultly soluble in water, has been formed during the storage of the compound. So, it is not considered that the compound has properties suitable for formulating into a phamaceutical preparation.
2,3-(methylenedioxy)-5-methyl-7-hydroxy-8-ethoxy-benzo[c]phenanthridinium hydrogen sulfate (compound A-0), wherein the acid residue X^- is a hydrogen sulfate ion HSO4^-, is a compound according to the invention, and can be obtained as yellow powder. […] A 0.5 µM aqueous solution of 2,3-(methylenedioxy)-5-ethyl-7-hydroxy-8-methoxy-benzo[c]phenanthridinium chloride, wherein the acid residue X^- is a chloride ion Cl^-, has a pH of 4.3. On the other hand, a 0.5 µM aqueous solution of 2,3-(methylenedioxy)-5-methyl-7-hydroxy-8-methoxy-benzo[c]phenanthridinium hydrogen sulfate according to the invention, wherein the acid residue X^- is a hydrogen sulfate ion HSO4^-, has a pH of 3.9. […] There are no disadvantages in the pharmaceutical activities of such compounds when they have the form of hydrogen salts such as hydrogen sulfate salts. Therefore, the hydrogen salt compounds are practically useful as medicines in view of the enhanced stability thereof.

pH of aqueous solution = assay type: physicochemical; settings: 0.5 µM aqueous solution

| Compound | color change and decomposition on storage [1] | color change and decomposition on storage ([1]; hydrogen sulfate salt) | color change on storage ([1]; stored at room temperature for 1 month) | pH (pH of aqueous solution) |
| --- | --- | --- | --- | --- |
| COc1ccc2c(c[n+](C)c3c4cc5c(cc4ccc23)OCO5)c1O [2,3-(methylenedioxy)-5-methyl-7-hydroxy-8-methoxy-benzo[c]phenanthridinium chloride, reference compound] | dark blackish brown color |  |  |  |
| COc1ccc2c(c[n+](C)c3c4cc5c(cc4ccc23)OCO5)c1O [Compound A-0, 2,3-(methylenedioxy)-5-methyl-7-hydroxy-8-methoxy-benzo[c]phenanthridinium hydrogen sulfate salt] |  | no color change and no decomposition | no change in its color | 3.9 |
